Data taken from patent US6093692A, “Method and compositions for lipidization of hydrophilic molecules” (The University of Southern California, priority 1997, dated 2000).
Part of at least one peptide drawing is inferred or uncertain, most often the ends.

Experiment: Gastro-intestinal absorption and calcium-lowering effect after oral administration
Format: in vivo, CF mice
Conditions: 100 μg/kg in PBS, one hour, plasma, N = 3, S.D.
Description: CT and CT-P were orally administered to CF mice using a gavaging needle at a dose of 100 μg/kg in PBS. The mice, three of each group, were sacrificed 1 hour after the treatment, and the plasma was isolated from their blood. The levels of CT and calcium were measured by using commercial CT-RIA (Phoenix) and calcium diagnostic (Sigma Chemical Co.) kits, respectively. […] Furthermore, the level of calcium in plasma at 1 hour was lower in CT-P treated mice than that in CT treated mice, which was consistent with the finding in CT levels. Because the crossreactivity of CT-P to the anti-CT antibody is only about 10%, the actual concentration of total CT in the plasma of CT-P treated mice could be even higher than the value presented in Table 5.

CC(C)C[C@H](NC(=O)[C@H](CCCCN)NC(=O)CNC(=O)[C@H](CC(C)C)NC(=O)[C@@H](NC(=O)[C@@H]1CSSC[C@H](N)C(=O)N[C@@H](CO)C(=O)N[C@@H](CC(N)=O)C(=O)N[C@@H](CC(C)C)C(=O)N[C@@H](CO)C(=O)N[C@@H]([C@@H](C)O)C(=O)N1)C(C)C)C(=O)N[C@@H](CO)C(=O)N[C@@H](CCC(N)=O)C(=O)N[C@@H](CCC(=O)O)C(=O)N[C@@H](CC(C)C)C(=O)N[C@@H](Cc1c[nH]cn1)C(=O)N[C@@H](CCCCN)C(=O)N[C@@H](CC(C)C)C(=O)N[C@@H](CCC(N)=O)C(=O)N[C@H](C(=O)N[C@@H](Cc1ccc(O)cc1)C(=O)N1CCC[C@H]1C(=O)N[C@@H](CCCNC(=N)N)C(=O)N[C@H](C(=O)N[C@@H](CC(N)=O)C(=O)N[C@H](C(=O)NCC(=O)N[C@@H](CO)C(=O)NCC(=O)N[C@H](C(=O)N1CCC[C@H]1C(N)=O)[C@@H](C)O)[C@@H](C)O)[C@@H](C)O)[C@@H](C)O [CT, Salmon calcitonin]
Calcium (% reduction): 17.5 ± 3.6 % reduction
